Source: PubChem BioAssay AID743121 (NCATS, 2013)

Screen: 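Genes whose silencing strengthens cell killing by camptothecin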 (primary screen)
Cells: MDA-MB-231 cells, a human breast cancer line
Reagents: single siRNA against human genes, 20 nM siRNA (0.8 pmol per well)
Duration: 120 h (drug added 48 h after transfection, read 72 h later)
Challenge: camptothecin 20 nM (about EC30) for 72 h; vehicle 0.1% DMSO in parallel plates
Detection: 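Cell viability by ATP luminescence (CellTiter-Glo) as % of non-targeting siRNA wells, and the log2 ratio of viability without drug over viability with camptothecin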
Direction: log2 vehicle/camptothecin viability: higher = stronger sensitisation to camptothecin; viability with camptothecin and viability without drug: higher = more viable cells
Active means: 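Active genes have an RSA gene-level p-value below 0.001, computed from the ratios of their separate siRNAs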
In all, the deposit lists about 26,000 reagents; shown is an unselected part. In the full data, 167 (0.63%) were called active. 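Calls are per gene from RSA p-values that are not deposited; an individual active-marked siRNA can sensitise only weakly.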 Reagents against one gene are numbered here. Reagent sequences are not shown.

gene symbol,reagent,log2 vehicle/camptothecin viability,viability with camptothecin (% of control),viability without drug (% of control),Call
IFNE,1,0.149,92.7,103,inactive
IFNE,2,0.115,98.1,106,inactive
IFNE,3,-0.537,58,40,inactive
IFNE,4,-0.149,107,96.5,inactive
ATP6AP2,1,-0.447,82.2,60.3,inactive
ATP6AP2,2,-0.131,34.6,31.6,inactive
ATP6AP2,3,-0.0192,96.7,95.5,inactive
ATP6AP2,4,-0.217,86.6,74.5,inactive
PJA2,1,0.368,71,91.6,inactive
PJA2,2,-0.171,93.2,82.8,inactive
PJA2,3,-0.275,80.8,66.8,inactive
PJA2,4,-0.0747,89.6,85,inactive
CLEC4G,1,0.409,50,66.3,inactive
CLEC4G,2,-0.129,70.1,64.2,inactive
CLEC4G,3,-0.411,98.4,74,inactive
OR5P3,1,-0.624,95.2,61.8,inactive
OR5P3,2,-0.163,87.9,78.5,inactive
OR5P3,3,-0.292,118,96.7,inactive
OR5P3,4,-0.46,84.3,61.3,inactive
EGF,1,-0.0429,94.2,91.4,inactive
EGF,2,0.405,28.4,37.6,inactive
EGF,3,-0.702,91.2,56,inactive
EGF,4,-0.425,70.2,52.3,inactive
PAG1,1,-0.177,94.4,83.5,inactive
PAG1,2,-0.265,97.3,81,inactive
PAG1,3,-0.385,75.5,57.8,inactive
IRAK2,1,-0.44,111,82,inactive
IRAK2,2,0.111,63.8,68.9,inactive
IRAK2,3,-0.626,97.1,62.9,inactive
IRAK2,4,-0.548,60.7,41.5,inactive
NECTIN2,1,-0.56,54,36.6,inactive
NECTIN2,2,-0.173,85.6,75.9,inactive
NECTIN2,3,0.107,78.7,84.8,inactive
NECTIN2,4,0.205,65.4,75.4,inactive
EID2,1,-0.268,79.4,65.9,inactive
EID2,2,-0.218,101,86.5,inactive
EID2,3,-0.215,127,110,inactive
ARRB2,1,-0.297,43.5,35.4,inactive
ARRB2,2,-0.125,80.2,73.6,inactive
ARRB2,3,0.514,62.7,89.5,inactive
ARRB2,4,0.0893,91.7,97.5,inactive
KCNK1,1,0.685,30.7,49.4,inactive
KCNK1,2,-0.248,77.2,65,inactive
KCNK1,3,-0.132,84.5,77.1,inactive
KCNK1,4,-0.0621,78.8,75.5,inactive
WDR5,1,-0.314,83.6,67.3,inactive
WDR5,2,-0.557,98.6,67,inactive
WDR5,3,-0.0344,38.1,37.2,inactive
WDR5,4,-0.498,106,75.1,inactive
SMYD5,1,-0.438,96.2,71,inactive
SMYD5,2,-0.0738,86.6,82.2,inactive
SMYD5,3,0.1,44.3,47.5,inactive
UNC5C,1,-0.00967,93.6,92.9,inactive
UNC5C,2,-0.312,68.4,55.1,inactive
UNC5C,3,-0.219,85.4,73.3,inactive
UNC5C,4,-0.335,99.4,78.8,inactive
TXNDC16,1,-0.0981,71.2,66.5,inactive
TXNDC16,2,-0.172,122,109,inactive
TXNDC16,3,-0.217,86.7,74.6,inactive
TXNDC16,4,-0.126,40.8,37.3,inactive
CD68,1,0.159,67.4,75.3,inactive
CD68,2,-0.0722,65.5,62.3,inactive
CD68,3,-0.0255,86.7,85.2,inactive
CD68,4,1.72,13.2,43.6,inactive
KCNE1,1,0.0688,64.7,67.8,inactive
KCNE1,2,-0.22,105,90.2,inactive
KCNE1,3,-0.145,98.5,89.1,inactive
KCNE1,4,-0.448,75.4,55.3,inactive
CRYZL1,1,0.252,68.5,81.5,inactive
CRYZL1,2,-0.45,104,76.3,inactive
CRYZL1,3,1.05,28.8,59.6,inactive
ABL1,1,-0.257,73.9,61.8,inactive
ABL1,2,0.307,80.5,99.6,inactive
ABL1,3,-0.306,57.5,46.5,inactive
ABL1,4,-0.376,73,56.3,inactive
EPHA6,1,-0.224,37.7,32.3,inactive
EPHA6,2,-0.0954,90,84.3,inactive
EPHA6,3,-0.0487,92,89,inactive
EPHA6,4,0.236,93.8,110,inactive
EPHA6,5,-0.332,90,71.5,inactive
EPHA6,6,-0.191,82.7,72.4,inactive
EPHA6,7,0.0538,89,92.4,inactive
GPR31,1,0.38,37.4,48.7,inactive
GPR31,2,-0.335,97.9,77.6,inactive
GPR31,3,0.291,48.7,59.6,inactive
GPR31,4,-0.514,85.8,60.1,inactive
UBR1,1,-0.14,30.6,27.8,inactive
UBR1,2,0.183,76.1,86.4,inactive
UBR1,3,-0.0779,97,91.9,inactive

11 entries already listed, ordered by “viability with camptothecin (% of control)”, descending:
gene symbol,reagent,log2 vehicle/camptothecin viability,viability with camptothecin (% of control),viability without drug (% of control),Call
EID2,3,-0.215,127,110,inactive
EID2,2,-0.218,101,86.5,inactive
IRAK2,3,-0.626,97.1,62.9,inactive
NECTIN2,2,-0.173,85.6,75.9,inactive
ARRB2,2,-0.125,80.2,73.6,inactive
EID2,1,-0.268,79.4,65.9,inactive
NECTIN2,3,0.107,78.7,84.8,inactive
NECTIN2,4,0.205,65.4,75.4,inactive
IRAK2,4,-0.548,60.7,41.5,inactive
NECTIN2,1,-0.56,54,36.6,inactive
ARRB2,1,-0.297,43.5,35.4,inactive
